Data on 2 molecules can be found in patent US20240327523A1 (University of California, published 2024).

By UniProt entry, the sequences of proteins in these tests, tags left out. Where a name states a change or a piece, a line headed by the entry shows the natural chain unless it says otherwise.
UniProt Q13241: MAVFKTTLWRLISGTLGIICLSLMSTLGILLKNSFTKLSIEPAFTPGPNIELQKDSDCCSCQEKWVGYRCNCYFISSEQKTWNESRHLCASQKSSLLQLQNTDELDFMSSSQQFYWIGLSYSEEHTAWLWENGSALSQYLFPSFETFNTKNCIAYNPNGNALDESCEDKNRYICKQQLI
UniProt P26717: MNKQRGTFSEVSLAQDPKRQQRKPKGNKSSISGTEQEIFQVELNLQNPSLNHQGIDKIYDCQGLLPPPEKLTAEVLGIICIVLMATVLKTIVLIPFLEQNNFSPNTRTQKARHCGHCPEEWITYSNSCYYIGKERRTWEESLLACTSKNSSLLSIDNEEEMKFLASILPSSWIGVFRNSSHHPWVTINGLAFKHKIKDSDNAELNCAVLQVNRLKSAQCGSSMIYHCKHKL
UniProt O43914: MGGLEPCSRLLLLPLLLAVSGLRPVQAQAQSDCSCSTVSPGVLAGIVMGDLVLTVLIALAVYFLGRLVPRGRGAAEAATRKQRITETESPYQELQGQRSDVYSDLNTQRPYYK

This test deals with CD94-NKG2C complex expressed on Ba/F3 cells (human CD94, human NKG2C and human DAP12) (human) (UniProt Q13241+P26717+O43914). Briefly: flow cytometry staining of Ba/F3 transfectants, PE-conjugated anti-human IgG1.

Results are given in words; binding and its absence hold for the method and conditions named. Some binding calls cover weakened binding; strength is not graded here.

B1: JLS002-rAB22 IgG (antibody, V domains shown)
VH: EVQLVESGGGLVQPGGSLRLSCAASGFNVYSSSIHWVRQAPGKGLEWVAYISSYSGYTYYADSVKGRFTISADTSKNTAYLQMNSLRAEDTAVYYCARGRYQGMDYWGQGTLVTVSS
VL: DIQMTQSPSSLSASVGDRVTITCRASQSVSSAVAWYQQKPGKAPKLLIYSASSLYSGVPSRFSGSRSGTDFTLTISSLQPEDFATYYCQQYAYHLITFGQGTKVEIK
notes: also called rab22 JIS002 rab 22
For the molecule B1, the binding result is “binds”.

B2: JLS002-rAB23 IgG (antibody, V domains shown)
VH: EVQLVESGGGLVQPGGSLRLSCAASGFNVYSSSIHWVRQAPGKGLEWVASISSYSGSTSYADSVKGRFTISADTSKNTAYLQMNSLRAEDTAVYYCARYGYYMSGAMDYWGQGTLVTVSS
VL: DIQMTQSPSSLSASVGDRVTITCRASQSVSSAVAWYQQKPGKAPKLLIYSASSLYSGVPSRFSGSRSGTDFTLTISSLQPEDFATYYCQQKKAYSLITFGQGTKVEIK
notes: also called JSI002 rab 23
For B2, the binding entry was “binds”.
